Numbering of substitutions follows the chain as printed. Some of the results follow.
B1: il10ra_site1_sap_14_mot_HHH_b2_05453_000000140_0001_43_57_H_._HHH_b2_06766_0001_0000500030_0000001_0_0001 (protein)
chain: SSSSDERMQEVQELIRRIAELHSEGNPEEAQRIIEEAKEIAEELGNDVLLWVIEYLERTLSSSSS
B2: il10ra_site1_normal_mot_HHH_eva_0540_af2_000000105_0001_1_16_H_._HHH_b2_07130_af2_0001_0000100004_0000001_0 (protein)
chain: SSSSDETEEVFELIEKAAKLLNDGNPEEAEKVLEEAREIAEKLGNDIFRWQIEFLEELIKKSSSS
B3: il10ra_site1_normal_mot_HHH_b1_05326_000000242_0001_1_20_H_._HHH_b1_06531_af2_0001_0000200003_0000001_0 (protein)
chain: SSSSSDEQQEVLKLLREVFRLLLRGNPEEAKKLVEEAREIAEEGNDPALEKAVKIAEEAASSSSS
B4: il10ra_site1_normal_mot_HHH_b2_00943_af2_000000149_0001_1_17_H_._HHH_b2_02724_af2_0001_0000600020_0000001_0 (protein)
chain: SSSSSEEFEELVEEAQRLAKELGDENVLFLIRQLEKAYRRAGDEWAAEILENLLKELEELGSSSS
B5: il10ra_site1_sap_18_mot_HHH_b1_03094_000000294_0001_1_20_H_._HHH_b2_02427_0001_0000500047_0000001_0_0001 (protein)
chain: SSSSSDTDEAVRRVKELLRRAMHVSEEEREELLREAEELAKEANNELLEWQVKFVARLLNSSSSS
B6: il10ra_site1_normal_mot_HHH_b2_07569_000000265_0001_38_56_H_._HHH_b1_06669_0001_0000300031_0000002_0 (protein)
chain: SSSSELEERIRELLEKLEELVEEGDVREASELALEIVQLIFELGDEELVQEVWELAKLAFENSSS
B7: il10ra_site1_normal_mot_HHH_b2_02053_af2_000000006_0001_3_19_H_._HHH_b2_04663_0001_0000200030_0000002_0_af2pred_0001 (protein)
chain: SSSSDEAQEVLELIRKALELLNNGNPEEAKEVLEEALRLAEEGNNPILRHIIEFLEEQVESSSSS
B8: il10ra_site1_normal_mot_3af0db62db2b275566dae2e03bf881fa_0001_000000003_0001_37_50_H_._HHH_b2_06527_0001_0000300018_0000001_0_af2pred_0001 (protein)
chain: SSSSSSDLEQQVRAAIWFAKNIHNPTVRRKALEFALKIAEEINNEELVEEIRELLEQVNSSSSSS
B9: il10ra_site1_sap_23_mot_HHH_b1_00992_000000182_0001_23_40_H_._HHH_b1_08664_0001_0000300022_0000001_0_0001 (protein)
chain: SSSSSDEELRRRVEELLEELEELTDPQERYRVLKEAIELAVEGRDPELLRLIMEVLRRLFSSSSS
B10: il10ra_site1_sap_22_mot_05ca327611f5605f0dd8494b449afcbf_0001_1_000000248_0001_35_51_H_._HHH_b2_01354_0001_0000400025_0000002_0_0001 (protein)
chain: SSSSDAEEYVKAALRFAKALAENGDPEAARRLLRLIIEALRNLGDEEAVELAEELLEKIEKSSSS
B11: il10ra_site1_sap_16_mot_HHH_b1_00999_000000080_0001_41_55_H_._HHH_b2_05851_af2_0001_0000100003_0000002_0_0001_af2pred_0001 (protein)
chain: SSSSSTAEELVRLAIEVAELLREQGDPELAEEALRIAERIARNANDPELRELVEELERLLSSSSS
B12: il10ra_site1_normal_mot_HHH_b1_02997_000000220_0001_39_52_H_._HHH_b2_05487_af2_0001_0000400018_0000001_0 (protein)
chain: SSSSSNEYEILRRAAELYAEGNLEEAQELLEELERELEEKGNFNHLFNVRYLLEQIRRLASSSSS
B13: il10ra_site1_normal_mot_HHH_b1_01233_000000085_0001_1_18_H_._HHH_b1_04853_af2_0001_0000300016_0000001_0 (protein)
chain: SSSSSEEYEKYKKILQEIVELEHEGDREEAEELAEQLLEELRELGNELAVHQVEFLLRLVRSSSS
B14: il10ra_site1_sap_23_mot_HHH_b1_03333_000000091_0001_1_17_H_._HHH_b1_08488_0001_0000300015_0000001_1_0001_af2pred_0001 (protein)
chain: SSSSSREEEALELSLRFLKFLLEEGDEEAAKRLARALLQLAKLANDEEVQREVEEIEKELSSSSS
B15: il10ra_site1_normal_mot_HHH_b2_04275_000000272_0001_20_36_H_._HHH_b2_04520_0001_0000200028_0000002_0_af2pred_0001 (protein)
chain: SSSSDEEEELIRLLRRIIELHTRGDDEEARELLEEARELAERLGNLVVEAILEFLEKLLESSSSS
B16: il10ra_site1_sap_22_mot_HHH_b1_01975_000000257_0001_1_17_H_._HHH_b2_06526_0001_0000100004_0000001_0_0001 (protein)
chain: SSSSDEEEERVLELSKEAFRLALRGNPEEAREVLEEALELAQEIGNERMVHVIEDLLKALSSSSS
B17: il10ra_site1_sap_21_mot_5d0551e3c4357af680d60aaa850e4cea_0001_1_af2_000000133_0001_18_33_H_._HHH_b2_07683_0001_0000300010_0000002_0_0001 (protein)
chain: SSSSNEEAEEYAENTKKFVKWLLEAGDPEAARRLLEAAIHAARNLGDEEVVEELEELLKEISSSS
B18: il10ra_site1_normal_mot_HHH_b2_03801_000000188_0001_20_36_H_._HHH_b1_01557_0001_0000600034_0000001_0 (protein)
chain: SSSSSDREVAERSARRLLEAAKQIDDDEYVRLTLRFAKALAEDVNDEELKKEIEEVIEELSSSSS
B19: il10ra_site1_sap_18_mot_HHH_b1_04514_000000156_0001_1_18_H_._HHH_b1_00771_0001_0000300037_0000001_0_0001_af2pred_dldesign_0_af2pred (protein)
chain: SSSSSSSLAERHFAAAEQFLAQGELELAKRALEYALFLAEAEGDEELVARIRARLAELSSSSSSS
B20: il10ra_site1_normal_mot_HHH_b2_07569_000000265_0001_38_56_H_._HHH_b1_06669_0001_0000100004_0000001_0 (protein)
chain: B6 chain with R9E, K16E, E18K, E19R, R27E, Q50K, A56V, N62R
B21: il10ra_site1_normal_mot_HHH_b2_02116_af2_000000165_0001_41_55_H_._HHH_b2_02806_af2_0001_0000300031_0000001_0 (protein)
chain: SSSSSSSEERSVRLLILAARRVSDPHLARAALRLAEEIARHSGNEELLEEAERLLEELRSSSSSS
B22: il10ra_site1_sap_16_mot_HHH_b2_03450_000000073_0001_38_52_H_._HHH_b1_01434_af2_0001_0000400017_0000001_0_0001_af2pred_0001 (protein)
chain: SSSSSSEVEEEVERLLEEAERIKDPHERAYALTRAFALANQNNDPELEELVKKVAIELTSSSSSS
B23: il10ra_site1_sap_18_mot_HHH_b2_01447_af2_000000258_0001_1_20_H_._HHH_b1_03356_0001_0000100001_0000001_0_0001_af2pred_0001 (protein)
chain: SSSSSSEEVEKTFEEVREKAEERGDESARFLAEVLLKAYRIAGDPRAQELLELLLKELNSSSSSS
B24: il10ra_site1_sap_14_mot_HHH_b1_05370_000000138_0001_1_16_H_._HHH_b2_06744_af2_0001_0000500017_0000002_0_0001 (protein)
chain: SSSTVEYLARQALRAAELAAEAGDKEAVEHILEILENLERHRGSEEVREAIRIVEELLEELSSSS
B25: il10ra_site1_sap_19_mot_HHH_b2_08004_000000101_0001_1_17_H_._HHH_b1_05193_0001_0000300016_0000002_0_0001 (protein)
chain: SSSSDEAEKVKEVLEEALKLQREGDKEKARELLEELLKELEEKNNLVLLFSVEHLLRVIENSSSS
B26: il10ra_site1_sap_26_mot_HHH_b2_02386_000000054_0001_1_20_H_._7397bc064fdf6bae2cd3d62d454bf56a_0001_1_0001_0000200008_0000001_0_0001_af2pred_0001 (protein)
chain: SSSSSEEEVVRLTLRFAEWLIEAGDPEAARRFLEAAERLVRELGDEELERKIEELLEELKSSSSS
B27: il10ra_site1_normal_mot_HHH_b1_05357_000000034_0001_23_39_H_._HHH_b1_02372_af2_0001_0000500029_0000001_0_af2pred_0001 (protein)
chain: SSSSDVRHRAAYVALEVYALAYKRNDPEVREEVLKLLREILEKGDPRLLEELEELLEELRSSSSS
B28: il10ra_site1_normal_mot_8756ee2cf497b5429c717dfc0c0bcfd6_0001_000000186_0001_1_13_H_._HHH_b1_07345_af2_0001_0000100004_0000001_0 (protein)
chain: SSSSDEELEELFRLSEEIAKLLHEGDREEAEELVKEAEELAERLGNDVALHQLEYLQRHINSSSS
B29: il10ra_site1_normal_mot_HHH_b1_04771_000000013_0001_40_56_H_._HHH_b1_08243_0001_0000100007_0000001_0 (protein)
chain: SSSSDEEVEEVAELSLEAFRLALRGNPEEARKLLEEAEELAEEANDPRLLEVIRHLLKALSSSSS
B30: il10ra_site1_sap_26_mot_HHH_b2_02736_000000092_0001_22_38_H_._HHH_b2_04967_af2_0002_0000200019_0000002_0_0001_af2pred_0001 (protein)
chain: SSSEEEVEELVKEVERVAEERGDPKARLSARFYAVLARVAAKRDNEDALKALRRALQAFRENSSS
B31: il10ra_site1_sap_15_mot_HHH_b1_04514_000000156_0001_1_18_H_._HHH_b1_00644_0001_0000200013_0000002_0_0001 (protein)
chain: SSSSSSDEEEVEKLLEEAEHISDEEERMKVLMEALRIALRLGNPELLHLVWRVIKELISSSSSSS
B32: il10ra_site1_sap_17_mot_HHH_b2_03220_af2_000000223_0001_23_40_H_._HHH_b2_01415_af2_0001_0000200009_0000002_0_0001 (protein)
chain: SSSSDEEAEEVFRLMKEAAHIDDEEEVREVLEEALRLAEEAGNQNMIVNLRYWLEAVERGSSSSS
B33: il10ra_site1_normal_mot_HHH_b2_07938_000000207_0001_42_56_H_._HHH_b1_00305_af2_0001_0000200009_0000001_0 (protein)
chain: SSSSSSELEEHIKELVELFGLSEEQEHYLEVAAEALKEKGVSEEEIRHMLEIQAKLLALGSSSSS
B34: il10ra_site1_normal_mot_HHH_b1_02881_000000046_0001_1_20_H_._HHH_b2_03598_0001_0000100004_0000001_0 (protein)
chain: SSSSSDEEYEERVEELLEEAQKSDDPDERYRLLREAIEVAAEGNDPELQRLVAEASAEIFSSSSS
B35: il10ra_site1_normal_mot_05ca327611f5605f0dd8494b449afcbf_0001_1_000000248_0001_35_51_H_._HHH_b2_01978_0001_0000100002_0000001_0 (protein)
chain: SSSSDVERVEEAQELLRQAAEIEDPEEARELLERAKELAEEAGNETLKISIEYLERQLERSSSSS
B36: il10ra_site1_sap_20_mot_HHH_b1_06789_af2_000000041_0001_1_20_H_._HHH_b2_00653_af2_0001_0000100003_0000001_1_0001_af2pred_0001 (protein)
chain: SSSSSRTQEVLKLIREAMELLQRGNPEEAEEVAREAVELAQEAGDPLAAHIAERLLEHIGSSSSS
B37: il10ra_site1_normal_mot_HHH_b2_01649_af2_000000191_0001_40_56_H_._HHH_b1_04317_0001_0000100005_0000002_0_af2pred_dldesign_0_af2pred (protein)
chain: SSSSSEAEITFAAGRHAIRAALEAGDLEAAQRALDYWSSVLEELGAPELVEALRAEYERLLSSSS

molecular target: il10ra, Q13651; assay: yeast display titration

Apparent Kd, inactive:
B1 no binding seen, B2 no binding seen, B3 no binding seen, B4 no binding seen, B5 no binding seen, B6 no binding seen, B7 no binding seen, B8 no binding seen, B9 no binding seen, B10 no binding seen, B11 no binding seen, B12 no binding seen, B13 no binding seen, B14 no binding seen, B15 no binding seen, B16 no binding seen, B17 no binding seen, B18 no binding seen, B19 no binding seen, B20 no binding seen, B21 no binding seen, B22 no binding seen, B23 no binding seen, B24 no binding seen, B25 no binding seen, B26 no binding seen, B27 no binding seen, B28 no binding seen, B29 > 931 nM, B30 no binding seen, B31 no binding seen, B32 no binding seen, B33 no binding seen, B34 no binding seen, B35 no binding seen, B36 no binding seen, B37 no binding seen
